A short description of data set [1]: general procedure: Fmoc solid-phase peptide synthesis; Fmoc-NH-SAL-PEG resin; COMU/Oxyma/DIPEA. To be noted: whole synthesis.
The nature of data set [2]: general procedure: Fmoc solid-phase peptide synthesis; Fmoc-Rink Amide AM resin; COMU/Oxyma/DIPEA. To be noted: whole synthesis.

This is an account of results in patent US20240199692A1 (priority 2019, published 2024).

“5-Br-thiophene-2-SO2-β-Ala-Asn-Asp-Ala-Leu-(N-Me)Met-Pro-NH2” registered an isolated mass in data set [1] (scale 0.10 mmol) of 27 mg.
Turning to “(2S,5S,32R)-2-{[(2S)-1-({(2S)-1-[{(2S,3S)-1-[(2S)-2-(2-amino-2-oxoethyl)pyrrolidin-1-yl]-3-methyl-1-oxopentan-2-yl}(methyl)amino]-4-methyl-1-oxopentan-2-yl}amino)-1-oxopropan-2-yl]carbamoyl}-4,11,20,29,34-pentaoxo-5-{4-[(4-phenoxybenzene-1-sulfonyl)amino]butanamido}-13,16,22,25-tetraoxa-3,10,19,28,33-pentaazaoctatetracontane-1,32,48-tricarboxylic acid”, in data set [2] (scale 0.12 mmol), the isolated mass is listed as 29 mg.
As to “N-[4-(4-carbamoylbenzamido)benzene-1-sulfonyl]-D-γ-glutamyl-(4S)-4-amino-L-prolyl-L-1 eucyl-N-(5-amino-5-oxopentyl)-N^2-methyl-L-α-glutamine”, the isolated mass in data set [2] (scale 0.10 mmol) is on record as 46 mg.
Consider “N-[(2S)-3-amino-1-({(2S)-1-[{(2S,3S)-1-[(2S)-2-(2-amino-2-oxoethyl)pyrrolidin-1-yl]-3-methyl-1-oxopentan-2-yl}(methyl)amino]-4-methyl-1-oxopentan-2-yl}amino)-1-oxopropan-2-yl]-N^2-[4-(4-methoxybenzamido)benzene-1-sulfonyl]-D-asparagine”, for which, in data set [2] (scale 0.10 mmol), the isolated mass stood at 12 mg.
Take “N^2-(4-{4-[4-(methylcarbamoyl)phenoxy]benzamido}butanoyl)-L-asparaginyl-L-α-aspartyl-L-alanyl-L-leucyl-L-methionyl-L-prolinamide”: the isolated mass in data set [1] (scale 0.10 mmol) was determined as 30 mg.
The same measure, in the same setting: the figure for “N^2-(4′-acetyl[1,1′-biphenyl]-4-sulfonyl)-N-[(2S)-1-({(2S)-1-[{(2S,3S)-1-[(2S)-2-(2-amino-2-oxoethyl)pyrrolidin-1-yl]-3-methyl-1-oxopentan-2-yl}(methyl)amino]-4-methyl-1-oxopentan-2-yl}amino)-1-oxopropan-2-yl]-D-asparagine” is 8 mg.
Turning to “N^2-[4-(4-phenoxybenzamido)butanoyl]-L-asparaginyl-N-[(2S)-4-amino-1-({(2S)-1-[{(2S,3S)-1-[(2S)-2-(2-amino-2-oxoethyl)pyrrolidin-1-yl]-3-methyl-1-oxopentan-2-yl}(methyl)amino]-4-methyl-1-oxopentan-2-yl}amino)-1-oxobutan-2-yl]-L-α-asparagine”, the isolated mass in data set [1] (scale 0.12 mmol) was found to be 14 mg.
In turn, “[(2S,5S,8S,20S)-8-[{(2S,3S)-1-[(2S)-2-(2-amino-2-oxoethyl)pyrrolidin-1-yl]-3-methyl-1-oxo pentan-2-yl}(methyl)carbamoyl]-5-methyl-3,6,14,17,21-pentaoxo-20-{4-[(4-phenoxybenzene-1-sulfonyl)amino]butanamido}-1,4,7,13,16-pentaazacyclohenicosan-2-yl]acetic acid” gave an isolated mass in data set [1] (scale 0.12 mmol) of 10 mg.
